Counter-ions that a name gives are not always drawn. The name of at least one read-out is uncertain.
Assays:
[1] = pH dependence of sildenafil citrate solubility in phosphate-citrate buffer with or without cyclodextrin; assay type: physicochemical; conditions: ACD 100 mg/ml vs HPBCD 200 mg/ml, phosphate-citrate buffer pH 3.0-8.0
Method: Phosphate-citrate buffer (0.1M) solutions are prepared with pH's of 3.0; 4.0, 5.0; 6.0; 7.0 and 8.0 in ddH2O (de-oxygenated water by purging with nitrogen gas). […] The maximal aqueous solubility for sildenafil citrate appears to occur at pH 5.

[2] = Solubility of sildenafil citrate in ddH2O with cyclodextrins (24 h shaking, HPLC); assay type: physicochemical; conditions: ACD, HPBCD, GCD, BCD
Method: Solutions were prepared by adding 50 mg of sildenafil citrate to ddH2O samples with varying quantities of the different cyclodextrins. FIG. 1B depicts solubility data of sildenafil citrate complexed with beta-cyclodextrin (BCD) at 0-15 mg/ml These samples were shaken for 24 hours at 200 rpm. Excess sildenafil citrate was present in each of the vials for the duration of the solubility study. Following the shaking, the vial contents were filtered through 0.45 μm filters to remove any excess solute. The remaining solution was assayed by HPLC for sildenafil citrate content.

[3] = Omari et al. (2006); cited from earlier work
[4] = Solubility of sildenafil base in ddH2O with cyclodextrins (24 h shaking, HPLC); assay type: physicochemical
Method: These samples were shaken for 24 hours at 200 rpm. Excess sildenafil citrate was present in each of the vials for the duration of the solubility study. Following the shaking, the vial contents were filtered through 0.45 μm filters to remove any excess solute. The remaining solution was assayed by HPLC for sildenafil base content. […] This is in agreement with the findings of Omani, et al. (2006).

Compound	cyclodextrin with greatest solubility enhancement [1]	sildenafil citrate solubility enhancement, order of cyclodextrins [2]	aqueous solubility enhancement, order of cyclodextrins [3]	cyclodextrin with greatest sildenafil base solubility enhancement ([4]; cyclodextrin concentrations below 50 mM)	sildenafil base solubility enhancement, order of cyclodextrins ([4]; ddH2O, ACD, HPBCD, GCD, BCD)
CCCc1nn(C)c2c(=O)[nH]c(-c3cc(S(=O)(=O)N4CCN(C)CC4)ccc3OCC)nc12 [sildenafil citrate, 1-[[3-(6,7-dihydro-1-methyl-7-oxo-3-propyl-1H15-pyrazolo[4,3-d]pyrimidin-5-yl)-4-ethoxyphenyl]sulfonyl]-4-methylpiperazine citrate]	Alpha-cyclodextrin (ACD)	ACD>HPBCD>GCD>>BCD			
CCCc1nn(C)c2c(=O)[nH]c(-c3cc(S(=O)(=O)N4CCN(C)CC4)ccc3OCC)nc12 [sildenafil base, 5-[2-ethoxy-5-(4-methylpiperazin-1-yl)sulfonylphenyl]-1-methyl-3-propyl-4H-pyrazolo[5,4-e]pyrimidin-7-one]			BCD>HPBCD>GCD>ACD	BCD	HPBCD>BCD>ACD>GCD

Reference: patent publication US20100184722A1, “INCLUSION COMPLEXES OF ALPHA-CYCLODEXTRIN AND SILDENAFIL SALT” (Shimoda Biotech (Pty) Ltd, priority 2008, published 2010)
